Tested on: HQF DNA d(TTAGGG)4
Experiment: Isothermal titration calorimetry
Format: binding, human
Conditions: ITC; for ΔG2: mode-2, 25°C
Experimental: When quadruplex DNA melts to form ssDNA structure, SG fluorescence intensity gradually reduces as SG has no binding to ssDNA. Each time, 5 µM of HQF DNA [d(T2AG3)4)], 5 µM of dsDNA (prepared by mixing equal concentration of poly-dA-dT and poly-dT-dA), 5 µM ssDNA ( poly dT alone) and 1 µM of each ligand was incubated at 4°C for 16 h, and used for melting studies. […] Affinity, stoichiometry and thermodynamic parameters for quadruplex-ligand complex were studied with 60 µM of ligand and 10 µM of HQF DNA using Microcal VP-ITC (Northampton, MA, USA). Ligand addition to G-quadruplex DNA was made every 180 seconds. Titration experiments were performed thrice and blank correction was made each time to minimize error.
On integrating the heats produced per injection, with respect to time and conversion to per mole basis, the binding isotherm (Figure 8A) corresponding to each ligand was obtained. […] After making blank correction, the heat data was fitted with “two-independent sites” model and analyzed using Origin 7.1 to calculate thermodynamic parameters.

Cc1cn([C@H]2C[C@H](n3cc(-c4ccccc4)nn3)[C@@H](CO)O2)c(=O)[nH]c1=O [Ligand L2]
ΔG2: -34.6 kJ/mol

Cc1cn([C@H]2C[C@H](N=[N+]=[N-])[C@@H](CO)O2)c(=O)[nH]c1=O [Ligand L1, 1-(4-azido 5-(hydroxylmethyl)tetrahydrofuran-2-yl)-5-methyl pyrimidi-ne-2,4(1H,3H)-dione, reference compound]
-TΔS1 (mode-1, 25°C): -34.5 kJ/mol | ΔG2: -33.9 kJ/mol

Cc1cn([C@H]2C[C@H](n3cc(-c4ccc(Cl)cc4)nn3)[C@@H](CO)O2)c(=O)[nH]c1=O [Ligand L3, 1-(4-(4-(4-chlorophenly)-1H-1,2,3-triazole-1-yl)-5-(hydroxymethyl)tetrahydrofuran-2-yl)-5-methylpyrimidine-2,3(1H,3H)-dione]
ΔG2: -35.2 kJ/mol
